# The exact form of at least one protein or probe is not confirmed. For some assays here: At least one verdict was read from the data and is not stated in words by the source.
# How the values were obtained:
# [1] = system: E75 DNA-binding domain (rE75) (kuruma shrimp); test: EMSA; settings: 2 ug protein, 5 ng probe; EMSA: 2 ug rE75, 5 ng biotin probe, 25 C, 20 min, kit binding buffer (Beyotime GS009; composition and pH not given); 6% acrylamide gel, 0.5x TBE; recombinant protein; protein details: 6xHis and pET32a vector tag (rTag); label: biotin (unlabeled as competitor)
# [2] = system: E75 DNA-binding domain (rE75) (kuruma shrimp); test: competition with a labelled probe; settings: excess unlabeled probe; EMSA: 2 ug rE75, 5 ng biotin probe, 25 C, 20 min, kit binding buffer (Beyotime GS009; composition and pH not given); 6% acrylamide gel, 0.5x TBE; recombinant protein; protein details: 6xHis and pET32a vector tag (rTag); label: biotin (unlabeled as competitor)
sequence,measurement,setting,value
"TGAAGGAAGAGGGGCAGTAAGTAAGTTGGGGCAGG (double strand) [Chi2 promoter E75-site probe, wild type]",binding result,[1],binds
same,binding result,[2],binds
